The list shows a part of the results.
biological target: OsWRKY34 (Oryza sativa, UniProt Q0JBA9 1-250); test: protein-binding microarray (RPBM); PBS, 2% BSA, 51.3 ng/ul salmon testes DNA, 50 uM zinc acetate, 200 nM TF, 25 C, 1 h; high values mean tight binding; details: protein: recombinant; tags: N-terminal polyhistidine and DsRed monomer fusion (pET32a); label: CyDye5-dUTP incorporated in the synthesized complementary strand; 3' TTTTT single-stranded linker to array surface; dsDNA, one strand shown
Summary of the method: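 Transcription factors were each fused at the N-terminus to a polyhistidine tag plus DsRed and expressed in E. coli BL21-CodonPlus before Ni–NTA purification. Binding to a double-stranded custom Agilent array was carried out with 200 nM protein at 25 °C for 1 h in PBS, 2% BSA, salmon testes DNA and 50 µM zinc acetate. The binding signal is per-feature fluorescence intensity, in arbitrary units, on an Axon 4000B scanner.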

Sequences of proteins named here, by UniProt entry; tags and fusion partners are left off.
UniProt Q0JBA9, entry or part of it: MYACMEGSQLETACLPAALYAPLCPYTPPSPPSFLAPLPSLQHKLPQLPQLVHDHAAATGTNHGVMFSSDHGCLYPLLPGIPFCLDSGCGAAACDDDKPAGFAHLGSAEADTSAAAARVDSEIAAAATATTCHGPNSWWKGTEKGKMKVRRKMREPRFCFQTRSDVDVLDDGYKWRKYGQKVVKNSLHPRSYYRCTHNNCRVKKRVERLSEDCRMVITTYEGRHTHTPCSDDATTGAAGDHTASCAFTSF

Sequence	binding signal
CCAGCTCCGTTTCTTGTCTTGATTTGGAATCCGGGAAATTCGGAGTCACCTAGTGCAG	8520 fluorescence intensity (a.u.)
ATTCATTTTAACACAAAGATTTTCCTCTTGTTCCTTTTTCCGGAGTCACCTAGTGCAG	8790 fluorescence intensity (a.u.)
TGGGGCCCACATGGGCTTTTCGGGTGTGTCTTGGTCGTAGCGGAGTCACCTAGTGCAG	9800 fluorescence intensity (a.u.)
GCTCCGCTCTCTTCGATCGATCTAGGGTTTGGTCTTCTGTCGGAGTCACCTAGTGCAG	11600 fluorescence intensity (a.u.)
TCAGTCTGTACACGCCTACACCAGAGTCCAGTGGTCCTAACGGAGTCACCTAGTGCAG	8100 fluorescence intensity (a.u.)
CGTACACGTAATATCCAATTCTGTTCTTGGGCCTCACGAGCGGAGTCACCTAGTGCAG	8220 fluorescence intensity (a.u.)
AAGGATATGCGTGCTCACTGTACATATCATTATTTCTCTCCGGAGTCACCTAGTGCAG	8480 fluorescence intensity (a.u.)
TGAACCACTCTCGCTCTCGGTCTGTGTCTCTCTTGCCATACGGAGTCACCTAGTGCAG	10700 fluorescence intensity (a.u.)
GTGTTTGGTTGGGTAATTTTGCAGGTGTTGCTCGTCAATTCGGAGTCACCTAGTGCAG	10200 fluorescence intensity (a.u.)
CTACACTCCTAATCTCTCTCTCTTTCTCGAGTGGAATCCACGGAGTCACCTAGTGCAG	8970 fluorescence intensity (a.u.)
GATTGTTGGTTTGCTTCCCTTTGCATGTTTATAACCCCATCGGAGTCACCTAGTGCAG	10300 fluorescence intensity (a.u.)
TGCACTAGTAGGATCATTATTTTCCCTTTTTTTTTCTTTTCGGAGTCACCTAGTGCAG	11300 fluorescence intensity (a.u.)
CACCGTCCAACCCCGCGCGCCGTTCGCCCGTCCGCTGCCGCGGAGTCACCTAGTGCAG	11200 fluorescence intensity (a.u.)
AATTCGTCATTAGTAAATATTTACCGTAGCATCACATTGTCGGAGTCACCTAGTGCAG	11300 fluorescence intensity (a.u.)
CACGTACTGATCTCTCCGTCCCGTTTGCTTCAACAACACACGGAGTCACCTAGTGCAG	11000 fluorescence intensity (a.u.)
CTTTCATATATGTGTGTGCTATGATTTGTTTTCTTCCTCACGGAGTCACCTAGTGCAG	11900 fluorescence intensity (a.u.)
ACACATATGGTTCTTGCAGTGTCTCATGTTGGATCTATCCCGGAGTCACCTAGTGCAG	9660 fluorescence intensity (a.u.)
TAGTTTTTGTCATTGGGCGGGAAAGATATATAGTTGAACCCGGAGTCACCTAGTGCAG	9360 fluorescence intensity (a.u.)
GCGATGCAAGCTGTGACACACTAACACTCTACTTGTACTACGGAGTCACCTAGTGCAG	8800 fluorescence intensity (a.u.)
GTATTATGGGTGGAGGCGGGCGGCTGAGCTGTTCCTGGGCCGGAGTCACCTAGTGCAG	8880 fluorescence intensity (a.u.)
ATCCGACTCCGACGCCACCACCACCAGTTCACCACCGCTGCGGAGTCACCTAGTGCAG	8420 fluorescence intensity (a.u.)

Sequence	binding signal
ATCAGATCACCTCTCGAGCACGGCGCACCACCTCATCGGCCGGAGTCACCTAGTGCAG	10400 fluorescence intensity (a.u.)
TCCGAGATACCGATATAACCGATATCCTTACCGTTTCCGACGGAGTCACCTAGTGCAG	8510 fluorescence intensity (a.u.)
TTCCATGCTTTTCCGATGGGTCACGGCCCACTTCTCTTCGCGGAGTCACCTAGTGCAG	8930 fluorescence intensity (a.u.)
CTTTATACTCCACTAGTATTTGTCAAATCTTTATTTTTCTCGGAGTCACCTAGTGCAG	12400 fluorescence intensity (a.u.)
CATAACATCGCAATTACTCCATCCGTCCCAAAAAAAACTTCGGAGTCACCTAGTGCAG	9250 fluorescence intensity (a.u.)
ATCCACCGCGCCGCCGTCCCGCATGCTCTGGCCGCTGCTCCGGAGTCACCTAGTGCAG	9630 fluorescence intensity (a.u.)
CGGTTTGTTCACCCAATCTGGTTCGAGCTGACTCGTGTGTCGGAGTCACCTAGTGCAG	10100 fluorescence intensity (a.u.)
GTTGGGCATTGAACCAAATAACGGCCCTTTGCTTTCAACACGGAGTCACCTAGTGCAG	8410 fluorescence intensity (a.u.)
GACCTGAAGTTCTCGTTGTGTTGGCCTGCGTTTTTATCTGCGGAGTCACCTAGTGCAG	16800 fluorescence intensity (a.u.)
TGTGATTTGCACCGCATACTTTCCCCGACAATAGATCATCCGGAGTCACCTAGTGCAG	8850 fluorescence intensity (a.u.)
CACTTCTCCTTCTCCTGCGCCGCCTCATCTTATCTCGCCACGGAGTCACCTAGTGCAG	11400 fluorescence intensity (a.u.)
CTCGTGCTCCTATTCCGCTTGTCCTTATCTCGGCGTCCGACGGAGTCACCTAGTGCAG	11700 fluorescence intensity (a.u.)
TCCAACTCATTACCAAAGCGACCGACACAAATCCAAAAATCGGAGTCACCTAGTGCAG	8060 fluorescence intensity (a.u.)
GACTAATCCCGCGTCACGAACTTGCTAATCAGTCAATAAACGGAGTCACCTAGTGCAG	8620 fluorescence intensity (a.u.)
GAAGCTACCCGTCTCTGCTAACCACCAAGCTCGAGCAAATCGGAGTCACCTAGTGCAG	9090 fluorescence intensity (a.u.)
ATGAATAATTGCATTACTTTTTGCTTGCTGTTTTCTGAATCGGAGTCACCTAGTGCAG	8320 fluorescence intensity (a.u.)
TTTGCAGGTTTCGTTTGCATTTGCGGGGCGGGCATATATGCGGAGTCACCTAGTGCAG	21600 fluorescence intensity (a.u.)
CCGCACTGGTCTTGCCCTTTTAAGCGCCGGCGCTTCCGTGCGGAGTCACCTAGTGCAG	8920 fluorescence intensity (a.u.)
TATTATGTACTCCGTAGAATTTATTGTCGTCTTATGTTTGCGGAGTCACCTAGTGCAG	8360 fluorescence intensity (a.u.)
CACCATCGCCGCTCTAGCTAGCTCCCGCCGGCCGCCACCACGGAGTCACCTAGTGCAG	9800 fluorescence intensity (a.u.)
CAAATTAGATGTTATTTTGACTTTTTTTTACAATATTTGACGGAGTCACCTAGTGCAG	10600 fluorescence intensity (a.u.)

Copied from the list:
binding signal with CACCGTCCAACCCCGCGCGCCGTTCGCCCGTCCGCTGCCGCGGAGTCACCTAGTGCAG is entered as 11200 fluorescence intensity (a.u.)
binding signal with CACTTCTCCTTCTCCTGCGCCGCCTCATCTTATCTCGCCACGGAGTCACCTAGTGCAG is entered as 11400 fluorescence intensity (a.u.)
binding signal with GTTGGGCATTGAACCAAATAACGGCCCTTTGCTTTCAACACGGAGTCACCTAGTGCAG is entered as 8410 fluorescence intensity (a.u.)

Further records follow:

Sequence	binding signal
AAACATCTCCTTCGTCTTCCCTACGCGTCCACCCGAAAAACGGAGTCACCTAGTGCAG	9380 fluorescence intensity (a.u.)
GCGCCACCCACCCTACCCGCGGTCGCCGCCGCCGCGCCGGCGGAGTCACCTAGTGCAG	8700 fluorescence intensity (a.u.)
CCTTGCACCACTAGTCTCTCTTCACTCCGGCGAATCCATTCGGAGTCACCTAGTGCAG	9160 fluorescence intensity (a.u.)
ATGTTTGTTTGGTTGACTGCACTTGGTCCGACGGATGAAACGGAGTCACCTAGTGCAG	8720 fluorescence intensity (a.u.)
ACATGGGCAGTTGTGTGAATTGCTGGAGAGGACCCAAGGTCGGAGTCACCTAGTGCAG	8330 fluorescence intensity (a.u.)
TTAGCACATTTTGACCCTAATTCTTTTTCTTACCTATGTTCGGAGTCACCTAGTGCAG	8370 fluorescence intensity (a.u.)
CGGAGTCGGTCAAGCTTAACCACTATTCCTTTCCGGATTGCGGAGTCACCTAGTGCAG	61500 fluorescence intensity (a.u.)
CTCATCGTGCCTTGGACGCCAATTCTCTCTCTCTCTCTTCCGGAGTCACCTAGTGCAG	8310 fluorescence intensity (a.u.)
CTGATATTTGCAAAGTACTTTGACCGGGTCAGCTTGATCACGGAGTCACCTAGTGCAG	9020 fluorescence intensity (a.u.)
ACAATTCCTGCTAGATAACTGACTTTCGCATGTTATGCCACGGAGTCACCTAGTGCAG	8120 fluorescence intensity (a.u.)
TTCGGCTTGTCCCCAAGTGTATGACTTAAAACCTTCCGGACGGAGTCACCTAGTGCAG	8030 fluorescence intensity (a.u.)
TATATTTTCCCTCGTTACAAACTATTACTACCTCAGTTTTCGGAGTCACCTAGTGCAG	9810 fluorescence intensity (a.u.)
TCGCCGCCCTTTTGCTTCCCGCTCTCTCGCTCGCCATCGCCGGAGTCACCTAGTGCAG	10100 fluorescence intensity (a.u.)
CGCGCGCGGGGCCTTGGAAGTGTTCGATCGCGAGCGTCTCCGGAGTCACCTAGTGCAG	8090 fluorescence intensity (a.u.)
GAGGAGAGCAGAACAGAACAAGAGGAGGAGAACAAAAAAACGGAGTCACCTAGTGCAG	8230 fluorescence intensity (a.u.)
TGTATTGTTGATTGGTTTCGTGCTGCTAAAGTTTTAAAAACGGAGTCACCTAGTGCAG	8590 fluorescence intensity (a.u.)
GTGTGTGCTGTGGTGGAGAGGAGAAAGGGAGGAAGAAGAGCGGAGTCACCTAGTGCAG	8140 fluorescence intensity (a.u.)
GGGGTTTGTTTATCTCGCTGAATTGATTGTGTCACAGTATCGGAGTCACCTAGTGCAG	11400 fluorescence intensity (a.u.)
AGTTCGCTATCTCGCTCCAGTGTCCAAATCGCGCACAAGTCGGAGTCACCTAGTGCAG	9740 fluorescence intensity (a.u.)
GGTTATAGGGCTTGTTTGGTTCTTTACCCTACCAATTCATCGGAGTCACCTAGTGCAG	9880 fluorescence intensity (a.u.)
ATTGTCTCTGTGCATGCACTTGTGTTTGCTGCACTACGACCGGAGTCACCTAGTGCAG	11400 fluorescence intensity (a.u.)

Laid out differently: results already given
Sequence,binding signal
AAACATCTCCTTCGTCTTCCCTACGCGTCCACCCGAAAAACGGAGTCACCTAGTGCAG,9380 fluorescence intensity (a.u.)
GCGCCACCCACCCTACCCGCGGTCGCCGCCGCCGCGCCGGCGGAGTCACCTAGTGCAG,8700 fluorescence intensity (a.u.)

The listing continues.

Sequence	binding signal
CCTTCTTCCTCCCTCTCATCTCTCTCCATTGCTAGCTCCTCGGAGTCACCTAGTGCAG	8250 fluorescence intensity (a.u.)
ACACCGTTCTTCGCTGCCCACATCGTCGCCCGTAGTTGTTCGGAGTCACCTAGTGCAG	8120 fluorescence intensity (a.u.)
CCTGCTATTGTACCTGCTCTAAGCCAGCTATAACCATATACGGAGTCACCTAGTGCAG	8170 fluorescence intensity (a.u.)
GCCCGCTGCTATTCTCTCTCATCTTTTATCCTATTAAAATCGGAGTCACCTAGTGCAG	13200 fluorescence intensity (a.u.)
GAATTGAGTTCTTGGTGGGGCATCCTTGTAGCTTTGGGAGCGGAGTCACCTAGTGCAG	9200 fluorescence intensity (a.u.)
GTCCAGTACTCCAGTCATGTACCAACCCTTCGTCCCAAGTCGGAGTCACCTAGTGCAG	9560 fluorescence intensity (a.u.)
CGTCCTCCGGGTCACTCGTTTCCGCGCGCAAGGTGTTCGACGGAGTCACCTAGTGCAG	8300 fluorescence intensity (a.u.)
ACAATAGTCTGTGTGATAACTCTTTGCATGTCAACATACACGGAGTCACCTAGTGCAG	8280 fluorescence intensity (a.u.)
CCAGTAGCATTTCTGCTCTACCACATCCATCTATCATCGTCGGAGTCACCTAGTGCAG	9350 fluorescence intensity (a.u.)
GATCCGTCGAATTCGAGGGTAACTTTTATTTCCGCTAAAACGGAGTCACCTAGTGCAG	8900 fluorescence intensity (a.u.)
TTTTCCAAACCTCTCGTCTCTCAACTTTTTCAAACCTATCCGGAGTCACCTAGTGCAG	8180 fluorescence intensity (a.u.)
GTGGGGCTCGGGTTCCGGCCGGTGTAGGGGAGGGGAGATGCGGAGTCACCTAGTGCAG	15700 fluorescence intensity (a.u.)
CTGTCAATCTGCATATATCTGTCTCTCTTACTCACTAACACGGAGTCACCTAGTGCAG	10400 fluorescence intensity (a.u.)
TGTATCCAAAATCATTGTTTAGCCTGGTCAAACTGGTCAACGGAGTCACCTAGTGCAG	8320 fluorescence intensity (a.u.)
TCTGATTATGTGTTGCATATTTGCTTAGACGCTCATTTTCCGGAGTCACCTAGTGCAG	10400 fluorescence intensity (a.u.)
GGCTGTTCCTGTTGAGATTTGAGCCCTGCTTTGGGCTTATCGGAGTCACCTAGTGCAG	9510 fluorescence intensity (a.u.)
ATCCCTGTTCGTTTCTCACGTTTATGTGACCAGCTGTTGACGGAGTCACCTAGTGCAG	10200 fluorescence intensity (a.u.)
TGCTACCAACGGCCGGTATCAATCCATGTCATGTCTGTCACGGAGTCACCTAGTGCAG	8350 fluorescence intensity (a.u.)
CTTCAGCTGAGTCTGTTTCGAAGACTACTCTGGTTGCTGCCGGAGTCACCTAGTGCAG	11000 fluorescence intensity (a.u.)
TTTTCTCTCTCATCACCATGATTCTCTTCTTATATATATACGGAGTCACCTAGTGCAG	8580 fluorescence intensity (a.u.)
CACATCCCCATCCGTGCTCTCTCTTTGTTTCTTTCTAGATCGGAGTCACCTAGTGCAG	9400 fluorescence intensity (a.u.)

— publication PMC7819943, “Rice protein-binding microarrays: a tool to detect cis-acting elements near promoter regions in rice”
